Assay results from US8624027B2, “Combination therapy for treating cancer and diagnostic assays for use therein” (AbbVie Inc., priority 2005, dated 2014).

Test: Pharmacokinetic evaluation in rat
Format: in vivo
Description: The pharmacokinetic behavior of compounds of this disclosure was determined following a single 2 mg/kg intravenous or 5 mg/kg oral dose in male Sprague-Dawley derived rats (n=3 per group). The compounds were prepared as 2 mg/mL solution in a 10% DMSO in PEG-400 formulation for both oral and intravenous administration. The 1 mL/kg intravenous dose was administered as a slow bolus (about 1-2 minutes) in the jugular vein of a rat under light ether anesthetic. The oral dose was administered by gavage. Serial blood samples were obtained from a tail vein of each rat prior 0.1 (IV only), 0.25, 0.5, 1, 1.5, 2, 3, 4, 6, 8 and 24 hours after dosing. The heparinized samples were thoroughly mixed and placed in an ice bath. Plasma was separated by centrifugation and stored frozen prior to analysis.
The compounds of interest were separated from the plasma using protein precipitation with acetonitrile. A plasma (100-200 μL, sample or spiked standard) aliquot was combined with 50 μL of internal standard (structurally related analog prepared in acetonitrile) and 1 ml acetonitrile in a 96-well polypropylene deep well plate. The plates were vortexed for 30 seconds followed by centrifugation (3500 rpm×15 minutes, 4° C.). In an automated manner, the supernatant was transferred to a clean 96-well plate. The samples were evaporated to near dryness on a Micro-Vap™ under a stream of dry nitrogen over low heat (˜37° C.). The samples were reconstituted vortexing with 0.2 mL 5% DMSO in acetonitrile. A 0.1-0.2 ml aliquot of acetonitrile: 0.1% trifluoroacetic acid (20:80, by volume) was added to each well, followed by an additional 30 second vortexing. The plates were centrifuged (3500 rpm×15 minutes, 4° C.) prior to HPLC-MS/MS analysis. Samples were analyzed simultaneously with spiked plasma standards. All samples from each study were analyzed as a single batch on the LC-MS/MS.
The compounds of interest and the internal standard were separated from each other and co-extracted contaminants on a 50×3 mm Keystone Betasil CN 5 μm column with an acetonitrile: 0.1% trifluoroacetic acid mobile phase (50:50, by volume) at a flow rate of 0.7 ml/min. Analysis was performed on a Sciex API 300™ Biomolecular Mass Analyzer using a heated nebulizer interface. Peak areas of the title compounds and internal standards were determined using the Sciex MacQuan™ software. Calibration curves were derived from peak area ratio (parent drug/internal standard) of the spiked rat plasma standards using least squares linear regression of the ratio versus the theoretical concentration. The methods were generally linear over the range of the standard curve (correlation coefficients >0.99) with an estimated quantitation limit of 0.01 μg/mL. The plasma concentration data for each animal were submitted to multi-exponential curve fitting using WinNonlin. The area under the plasma concentration-time curve from 0 to t hours (time of the last measurable plasma concentration) after dosing (AUC0-t) was calculated using the linear trapezoidal rule for the plasma concentration-time profiles. The residual area extrapolated to infinity, determined as the final measured plasma concentration (Ct) divided by the terminal elimination rate constant (β), was added to AUC0-t to produce the total area under the curve (AUC0-∞). Ki values shown in the tables below were determined using Wang's equation (Wang Z X., An Exact Mathematical Expression For Describing Competitive Binding Of Two Different Ligands To A Protein Molecule. FEBS Lett. 1995; 360:111-4)).

[1] = rat oral AUC / NCI-H146 EC50, Table 1

SMILES | PK/PD ratio AUC/EC50 (Table 3) | PK/PD ratio AUC/EC50 [1] | PK/PD ratio AUC/EC50 (Table 2)
CN(C)CC[C@H](CSc1ccccc1)Nc1ccc(S(=O)(=O)NC(=O)c2ccc(N3CCN(CC4=C(c5ccc(Cl)cc5)CCCC4)CC3)cc2)cc1C(F)(F)F [H, reference compound] | 4.8 |  | 
CC(C)N(C)CC[C@H](CSc1ccccc1)Nc1ccc(S(=O)(=O)NC(=O)c2ccc(N3CCN(CC4=C(c5ccc(Cl)cc5)CC(C)(C)CC4)CC3)cc2)cc1S(=O)(=O)C(F)(F)Cl [Example 22, 3-((chloro(difluoro)methyl)sulfonyl)-N-(4-(4-((2-(4-chlorophenyl)-4,4-dimethylcyclohex-1-en-1-yl)methyl)piperazin-1-yl)benzoyl)-4-(((1R)-3-(isopropyl(methyl)amino)-1-((phenylsulfanyl)methyl)propyl)amino)benzenesulfonamide] |  | 105 | 
CC1(C)CCC(CN2CCN(c3ccc(C(=O)NS(=O)(=O)c4ccc(N[C@H](CCN5CCOCC5)CSc5ccccc5)c(S(=O)(=O)C(F)(F)F)c4)cc3)CC2)=C(c2ccc(Cl)cc2)C1 [Example 24, N-(4-(4-((2-(4-chlorophenyl)-4,4-dimethylcyclohex-1-en-1-yl)methyl)piperazin-1-yl)benzoyl)-4-(((1R)-3-(morpholin-4-yl)-1-((phenylsulfanyl)methyl)propyl)amino)-3-((trifluoromethyl)sulfonyl)benzenesulfonamide] |  | 181 | 
O=C(NS(=O)(=O)c1ccc(N[C@H](CCN2CCOCC2)CSc2ccccc2)c(S(=O)(=O)C(F)(F)F)c1)c1ccc(N2CCN(Cc3ccccc3-c3ccc(Cl)cc3)CC2)cc1 [Example 39, N-(4-(4-((4′-chloro(1,1′-biphenyl)-2-yl)methyl)-1-piperazinyl)benzoyl)-4-(((1R)-3-(4-morpholinyl)-1-((phenylsulfanyl)methyl)propyl)amino)-3-((trifluoromethyl)sulfonyl)benzenesulfonamide] |  | 20 | 20.0
CC1(C)CCC(CN2CCN(c3ccc(C(=O)NS(=O)(=O)c4ccc(N[C@H](CCN5C[C@@H]6C[C@H]5CO6)CSc5ccccc5)c(S(=O)(=O)C(F)(F)Cl)c4)cc3)CC2)=C(c2ccc(Cl)cc2)C1 [Example 25, 3-((chloro(difluoro)methyl)sulfonyl)-N-(4-(4-((2-(4-chlorophenyl)-4,4-dimethylcyclohex-1-en-1-yl)methyl)piperazin-1-yl)benzoyl)-4-(((1R)-3-((1S,4S)-2-oxa-5-azabicyclo[2.2.1]hept-5-yl)-1-((phenylsulfanyl)methyl)propyl)amino)benzenesulfonamide] |  | 102 | 
O=C(NS(=O)(=O)c1ccc(N[C@H](CCN2CC3CC2CO3)CSc2ccccc2)c(S(=O)(=O)C(F)(F)F)c1)c1ccc(N2CCN(CC3=C(c4ccc(Cl)cc4)CCCC3)CC2)cc1 (stereo partly drawn) [Example 9, N-(4-(4-((2-(4-chlorophenyl)cyclohex-1-en-1-yl)methyl)piperazin-1-yl)benzoyl)-4-(((1R)-3-(2-oxa-5-azabicyclo[2.2.1]hept-5-yl)-1-((phenylsulfanyl)methyl)propyl)amino)-3-((trifluoromethyl)sulfonyl)benzenesulfonamide] | 137.5 | 137 | 
CC1(C)CCC(c2ccc(Cl)cc2)=C(CN2CCN(c3ccc(C(=O)NS(=O)(=O)c4ccc(N[C@H](CCN5CC6CC5CO6)CSc5ccccc5)c(S(=O)(=O)C(F)(F)Cl)c4)cc3)CC2)C1 (stereo partly drawn) [Example 11, 3-((chloro(difluoro)methyl)sulfonyl)-N-(4-(4-((2-(4-chlorophenyl)-5,5-dimethylcyclohex-1-en-1-yl)methyl)piperazin-1-yl)benzoyl)-4-(((1R)-3-(2-oxa-5-azabicyclo[2.2.1]hept-5-yl)-1-((phenylsulfanyl)methyl)propyl)amino)benzenesulfonamide] |  | 117 | 
CN(C)CC[C@H](CSc1ccccc1)Nc1ccc(S(=O)(=O)NC(=O)c2ccc(N3CCN(Cc4ccccc4-c4ccc(Cl)cc4)CC3)cc2)cc1C#N [C, reference compound] |  |  | 1.1
CN(C)CC[C@H](CSc1ccccc1)Nc1ccc(S(=O)(=O)NC(=O)c2ccc(N3CCN(Cc4ccccc4-c4ccc(Cl)cc4)CC3)cc2)cc1[N+](=O)[O-] [B, reference compound] |  |  | 4.5
O=C(NS(=O)(=O)c1ccc(N[C@H](CCN2CCOCC2)CSc2ccccc2)c(S(=O)(=O)C(F)(F)F)c1)c1ccc(N2CCN(CC3=C(c4ccc(Cl)cc4)CCOC3)CC2)cc1 [Example 21, N-(4-(4-((4-(4-chlorophenyl)-5,6-dihydro-2H-pyran-3-yl)methyl)piperazin-1-yl)benzoyl)-4-(((1R)-3-(morpholin-4-yl)-1-((phenylsulfanyl)methyl)propyl)amino)-3-((trifluoromethyl)sulfonyl)benzenesulfonamide] |  | 28 | 
CC(C)N(C)CC[C@H](CSc1ccccc1)Nc1ccc(S(=O)(=O)NC(=O)c2ccc(N3CCN(CC4=C(c5ccc(Cl)cc5)CCC(C)(C)C4)CC3)cc2)cc1S(=O)(=O)C(F)(F)F [Example 4, N-(4-(4-((2-(4-chlorophenyl)-5,5-dimethylcyclohex-1-en-1-yl)methyl)piperazin-1-yl)benzoyl)-4-(((1R)-3-(isopropyl(methyl)amino)-1-((phenylsulfanyl)methyl)propyl)amino)-3-((trifluoromethyl)sulfonyl)benzenesulfonamide] |  | 108 | 
CC1(C)CCC(c2ccc(Cl)cc2)=C(CN2CCN(c3ccc(C(=O)NS(=O)(=O)c4ccc(N[C@H](CCN5CCOCC5)CSc5ccccc5)c(S(=O)(=O)C(F)(F)Cl)c4)cc3)CC2)C1 [Example 19, 3-((chloro(difluoro)methyl)sulfonyl)-N-(4-(4-((2-(4-chlorophenyl)-5,5-dimethylcyclohex-1-en-1-yl)methyl)piperazin-1-yl)benzoyl)-4-(((1R)-3-(morpholin-4-yl)-1-((phenylsulfanyl)methyl)propyl)amino)benzenesulfonamide] |  | 451 | 
CN(C)CC[C@H](CSc1ccccc1)Nc1ccc(S(=O)(=O)NC(=O)c2ccc(N3CCN(Cc4ccccc4-c4ccc(Cl)cc4)CC3)cc2)cc1S(=O)(=O)C(F)(F)F [Example 38, N-(4-(4-((4′-chloro(1,1′-biphenyl)-2-yl)methyl)-1-piperazinyl)benzoyl)-4-(((1R)-3-(dimethylamino)-1-((phenylsulfanyl)methyl)propyl)amino)-3-((trifluoromethyl)sulfonyl)benzenesulfonamide] |  | 17 | 16.9
